Data: paper PMC3262128
No constants are given. Whether binding was seen depends on the method and setting. In cells and extracts the contact can be indirect. Here binding means that the protein was enriched with, or labelled near, the bait; the list need not be complete.

By UniProt entry, the sequences of proteins in these tests, tags left out.
UniProt Q8IXW5: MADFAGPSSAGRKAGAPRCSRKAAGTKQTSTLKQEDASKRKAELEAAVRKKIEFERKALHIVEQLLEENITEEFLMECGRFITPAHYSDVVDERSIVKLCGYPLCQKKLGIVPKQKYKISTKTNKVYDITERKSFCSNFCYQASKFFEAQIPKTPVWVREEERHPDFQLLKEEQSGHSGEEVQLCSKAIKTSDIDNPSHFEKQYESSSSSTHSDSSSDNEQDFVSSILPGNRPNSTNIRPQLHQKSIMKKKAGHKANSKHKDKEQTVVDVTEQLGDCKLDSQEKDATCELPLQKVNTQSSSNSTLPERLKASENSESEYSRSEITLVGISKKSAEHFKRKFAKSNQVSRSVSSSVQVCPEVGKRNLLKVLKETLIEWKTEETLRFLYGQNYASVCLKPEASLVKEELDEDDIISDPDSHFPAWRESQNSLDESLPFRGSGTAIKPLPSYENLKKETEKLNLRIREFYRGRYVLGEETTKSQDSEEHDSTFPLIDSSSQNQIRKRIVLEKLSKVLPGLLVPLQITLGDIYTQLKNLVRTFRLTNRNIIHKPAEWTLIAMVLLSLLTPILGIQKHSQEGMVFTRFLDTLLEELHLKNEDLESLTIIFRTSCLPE
UniProt Q9UL03: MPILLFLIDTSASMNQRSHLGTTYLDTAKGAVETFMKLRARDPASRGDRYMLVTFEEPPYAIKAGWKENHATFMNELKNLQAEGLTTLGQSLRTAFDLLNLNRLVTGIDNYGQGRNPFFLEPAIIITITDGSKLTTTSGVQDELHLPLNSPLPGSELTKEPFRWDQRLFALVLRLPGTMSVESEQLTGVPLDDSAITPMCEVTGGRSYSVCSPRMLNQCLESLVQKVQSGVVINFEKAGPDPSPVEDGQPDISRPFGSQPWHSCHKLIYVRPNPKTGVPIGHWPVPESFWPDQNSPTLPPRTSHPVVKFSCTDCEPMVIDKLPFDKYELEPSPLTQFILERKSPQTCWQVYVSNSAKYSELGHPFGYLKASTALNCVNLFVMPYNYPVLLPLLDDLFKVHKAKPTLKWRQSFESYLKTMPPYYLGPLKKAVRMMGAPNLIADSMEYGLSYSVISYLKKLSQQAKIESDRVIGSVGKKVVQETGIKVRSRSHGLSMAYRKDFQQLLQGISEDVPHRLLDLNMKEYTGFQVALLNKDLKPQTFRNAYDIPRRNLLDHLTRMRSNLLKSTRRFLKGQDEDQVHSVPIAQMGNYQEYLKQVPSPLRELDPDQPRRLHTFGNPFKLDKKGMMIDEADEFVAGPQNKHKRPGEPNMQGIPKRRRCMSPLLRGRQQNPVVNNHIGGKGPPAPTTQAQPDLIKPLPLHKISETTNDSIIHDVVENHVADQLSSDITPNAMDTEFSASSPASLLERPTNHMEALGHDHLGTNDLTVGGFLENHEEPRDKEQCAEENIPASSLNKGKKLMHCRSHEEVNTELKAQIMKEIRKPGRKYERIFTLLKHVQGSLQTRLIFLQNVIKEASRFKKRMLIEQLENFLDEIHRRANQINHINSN

Target: Flag-tagged RPAP2 (RNA Pol II-associated protein 2) (human) (UniProt Q8IXW5)
Test: affinity purification with mass spectrometry; small (SC) and large (LC) complexes of the F-RPAP2 Flag eluate, separated on a glycerol gradient, analysed by mass spectrometry

binding: binds
Substance: Int6 subunit of the Integrator complex (from UniProt Q9UL03 1-887)
